Primary screen of a compound library

Mtb glucose medium: 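Growth of Mycobacterium tuberculosis over 3 days (7H9 medium with glucose and tyloxapol); the read-out is not stated. Tested at 50 µM. Higher reads as more growth inhibition (inferred: compounds with an IC50 in retests scored well above the rest). About 69,000 compounds were tested under these conditions; 1.1% (about 760) showed 50% or more at least once.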
Mtb cholesterol medium: 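Whole-cell growth test on Mycobacterium tuberculosis, read after 4 days in a medium based on cholesterol and the lipid DPPC; the read-out is not stated. Concentration: 50 µM. Higher reads as more growth inhibition (inferred: compounds with an IC50 in retests scored well above the rest). Of about 69,000 compounds tested this way, about 370 (0.54%) reached 50% or more in at least one test.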

Each number is a percent effect as filed.
The controls that fix the scale are not given in the record; negative values are as filed.
Compounds were drawn at random from those tested, without regard to their results.
Two or more numbers in one place are separate tests of the same structure; such repeats can differ widely.

| # | Compound | Mtb glucose medium | Mtb cholesterol medium |
|---|---|---|---|
| 1 | `Cc1cc(NC(=O)CN2CCN(C3CCCC3)C(=O)C2)nn1C` | -12.7% | -9.385% & -0.7699% |
| 2 | `O=C(O)C(F)(F)F.[H][C@@]12CCN(C)C[C@@]1([H])[C@H](C(=O)NCc1ccco1)CCO2` | -30.86% | -20.31% |
| 3 | `COc1ccc(C[C@H]2CN(C3CCOCC3)CC[C@H]2OCC2CC2)cc1.O=C(O)C(F)(F)F` | -25.71% | -24.74% |
| 4 | `CCOCC(=O)Nc1cccc(Oc2ccccn2)c1` | 9.569% | -0.003958% & 3.141% |
| 5 | `O=C(O)C(F)(F)F.O=C(O)C(F)(F)F.[H][C@@]12CN(Cc3nccs3)C[C@H](C(=O)N3CCCCO3)[C@]1([H])CCO2` | -15.2% | -0.4287% & 17.35% |
| 6 | `c1ccc(CCN2CCCC(Cn3ccnc3)C2)cc1` (stereo not given) | 5.254% | 19.8% |
| 7 | `Cc1cccc(CN2CCC3(CCN(c4ccccn4)C3)C2=O)c1.O=C(O)C(F)(F)F` (stereo not given) | 0.1761% | 2.341% |
| 8 | `CNS(=O)(=O)CCNc1cc(C)nc2cc(C)nn12` | 6.683% | -0.1804% |
| 9 | `COc1ccc(SC(C)C(=O)N2CCC(C(=O)N3CCCC3)CC2)cc1` (stereo not given) | -11.49% & 0.6032% | 11.11% |
| 10 | `CN(Cc1ccncc1)C1COC2(CCN(Cc3nccn3C)CC2)C1.O=C(O)C(F)(F)F.O=C(O)C(F)(F)F.O=C(O)C(F)(F)F` (stereo not given) | -5.64% | -3.08% |
| 11 | `O=C(O)C1CN(Cc2cnc(C3CCCCC3)nc2)CCO1` (stereo not given) | -15.32% | 3.055% |
| 12 | `O=C(O)C(F)(F)F.O=C(O)C(F)(F)F.[H][C@@]12C[C@H](C)O[C@@]1([H])CCN(Cc1ccccn1)C2` | 21.64% | -7.73% |
| 13 | `CC(C)c1noc(CN2CCN(C(=O)OC(C)(C)C)C(C)C2)n1` (stereo not given) | 27.22% | 0.607% |
| 14 | `CO[C@H]1COCCN(C(=O)c2cc(C)oc2C(F)(F)F)C1` | 14.46% & 7.702% | 9.359% |
| 15 | `COc1ccc(CCNC(C)c2ccc3[nH]c(=O)[nH]c3c2)cc1OC` (stereo not given) | -2.547% & 8.507% | 10.48% |
| 16 | `COCCn1cc(NC(=O)NCC(C)N2CCOCC2)cn1` (stereo not given) | 8.648% & 0.2349% | -2.454% & 8.725% |
| 17 | `O=C(CCn1nc(C(F)(F)F)c(Br)c1C1CC1)NN1CCOCC1` | -0.6768% | -1.263% |
| 18 | `CCn1ccnc1CN1CCN(C(C)C(=O)N2CCCC2)CC1` (stereo not given) | -4.764% | -8.294% |
| 19 | `CCOC(C)c1nccn1Cc1c(C)noc1C` (stereo not given) | 1.486% & 31.88% | -0.2154% |
| 20 | `Cc1cc(C)nc(N2CCN(Cc3cc4n(n3)CCNC4)CC2)n1` | 23.73% | -0.01794% |
| 21 | `Cc1cnn(CC2CCCN2CCCS(=O)(=O)N(C)C)c1` (stereo not given) | -8.191% | 9.3% |
| 22 | `COc1c(C)cnc(CN2CCOC(Cn3cncn3)C2)c1C` (stereo not given) | -18.7% | -12.23% |
| 23 | `Cc1cnn(C2CCCN(C(=O)CCc3nccs3)C2)c1` (stereo not given) | -48.33% | -20.36% |
| 24 | `O=C(O)c1ccc(S(=O)(=O)Nc2ccccc2F)c(F)c1` | -13.86% | -7.802% |
| 25 | `[H][C@@]12CN(C(=O)c3cccnc3)C[C@]1([H])OCCN2CCN1CCCC1` | -4.328% | 12.91% & -13.06% |
| 26 | `CN1CC(c2ccccc2)CC12CCN(C(=O)c1c(Cl)cnn1C)CC2` (stereo not given) | 6.879% | -11.33% |
| 27 | `Cc1noc(C)c1CNC(=O)C(C)Oc1ccccc1F` (stereo not given) | 3.924% | -8.713% |
| 28 | `Cc1ccc2nc(-c3nc4c([nH]3)CCCNC4=O)cn2c1` | -35.03% | -30.39% |
| 29 | `Cc1nn2c(NCC(=O)NC3CC3)cc(-c3ccccc3)nc2c1C` | 36.94% | 58.28% & 47.02% |
| 30 | `N#Cc1ccccc1OCCN1CCn2c(nnc2C2CC2)C1` | -17.12% | 6.629% |
| 31 | `COCCN1C(=O)CCC12CCCN(C(=O)NC(C)C)CC2` (stereo not given) | -8.918% | -8.184% |
| 32 | `CNC(=O)c1cnc2n1CCN(C(=O)Cc1ccccn1)C2` | -5.797% & 2.408% | -13.71% |
| 33 | `Cc1n[nH]cc1C(=O)N1CCCC1c1cc[nH]n1` (stereo not given) | 0.3871% | 0.4157% |
| 34 | `COc1cccc(OCC2CCCN(C(=O)c3ncc(F)cc3F)C2)c1` (stereo not given) | -30.02% | -30.17% |
| 35 | `CNS(=O)(=O)c1ccccc1N1CCN(C(=O)C(C)C)CC1` | 11.64% & -4.385% | 13.97% |
| 36 | `CN1CCN(C(=O)Cc2ccc(S(=O)(=O)C(F)F)cc2)CC1` | 18.62% | 11.49% |
| 37 | `Cc1nc(N2CCOCC2)nc(C)c1NC(=O)c1ccco1` | 2.659% & 7.347% | 8.725% |
| 38 | `CC(C)NC(=O)NC[C@H]1OC[C@@H](NCc2ccccc2O)[C@@H]1O` | -3.114% & 16.33% | 1.97% |
| 39 | `O=C(O)C(F)(F)F.c1ccc(CN2CCCn3nnc(CNc4ncccn4)c3C2)nc1` | -15.72% | -19.04% |
| 40 | `OC(CNc1ccc(Cl)cn1)CN1CCOCC1` (stereo not given) | 10.09% | 12.63% |
| 41 | `CCn1nc2c(cc1=O)CN(CC(=O)Nc1cc(C)no1)CC2` | -1.549% | -15.98% |
| 42 | `Cc1cnn(CC(=O)NCC2CCN(c3cc(Cl)ccc3C)C2)c1` (stereo not given) | 0.1729% | 1.635% |
| 43 | `CC(C)n1[nH]c(=O)c2c1NC(=O)CC2c1ccc(S(C)(=O)=O)cc1` (stereo not given) | -3.139% | -4.258% |
| 44 | `Cc1ccc(C(=O)N2CCC3(CCC(C(=O)NCC4CC4)O3)CC2)o1` (stereo not given) | -13.16% | -6.049% & -1.807% |
| 45 | `COCCN(C)Cc1cc(Cl)ccc1OCC(O)CN1CCCCCC1` (stereo not given) | 14.67% | 51.22% |
| 46 | `COC(=O)CC(c1ccc(OC)c(OC)c1OC)c1c(O)n[nH]c1C` (stereo not given) | 12.67% & 0.7941% | 5.785% |
| 47 | `CS(=O)(=O)N1CCCC1CS(=O)(=O)c1ccccc1` (stereo not given) | -11.66% | 4.244% |
| 48 | `O=C(c1cccc(OC2CCCC2)c1)N1CCCC(n2cncn2)C1` (stereo not given) | 27.04% | 8.365% |
| 49 | `CC(=O)N1CCOC2(CCCN(Cc3ccc(N(C)C)cc3)C2)C1` (stereo not given) | -3.758% & -2.734% | 6.614% |
| 50 | `Cc1cc(Br)c(O)c(-c2nc(N3CCCCC3)sc2C)c1` | 10.15% | -4.719% |
| 51 | `CC(=O)N1CCCC1(C)c1nc(C)no1` (stereo not given) | 0.4217% | -3.404% & -6.139% |
| 52 | `CC(=O)N1CCN(CCNc2ncc(Br)cc2C)CC1` | -13.84% | -13.84% |
| 53 | `CC(=O)c1c(C)nn(S(=O)(=O)c2ccc(C)cc2)c1C` | -0.19% | -1.341% |
| 54 | `O=C(CCN1CCCC1c1cccc(F)c1)N1CCc2sccc2C1` (stereo not given) | 22.95% | -8.246% |
| 55 | `O=C(CCc1cc2n(n1)CCCN(C(=O)[C@H]1CCCO1)C2)NC1CC1` | 1.139% | -15.97% |
| 56 | `CCc1ccccc1OCCN(C)C(=O)CCN1CCCCO1` | 13.76% & 9.325% | 0.05447% |
| 57 | `CNC(=O)c1cn[nH]c1C1CCCN1c1nc(C)cc(C)n1` (stereo not given) | 7.588% | 21.52% |
| 58 | `O=C(O)[C@H]1OCC(=O)N(Cc2cccc(Cl)c2)[C@@H]1c1ccccc1` | 9.949% | 9.358% |
| 59 | `CN1Cc2cnn(CC3CCCC3)c2C(COCC2CC2)C1.O=C(O)C(F)(F)F.O=C(O)C(F)(F)F` (stereo not given) | -23.08% | 6.22% |
| 60 | `CC(C)Cn1cnnc1C1CCCN1C(=O)c1ccc(F)cc1F` (stereo not given) | -13.33% | -5.741% |
| 61 | `O=C(O)C(F)(F)F.[H][C@@]12CN(C(=O)Cc3ccsc3)C[C@]1([H])OCCN2CC1CCCO1` (stereo not given in full) | -35.53% | -15.26% |
| 62 | `O=C(Cc1n[nH]c(-c2cncc(Br)c2)n1)NCc1ccccn1` | -6.34% | -0.6285% |
| 63 | `O=C(NC1CCCC1)c1ccc(COCC(F)(F)F)o1` | 0.3203% | -3.049% |
| 64 | `CN(C)c1nc2sc(C(=O)N3CCN(C(=O)OC(C)(C)C)CC3)cc2s1` | -26.12% | -14.06% |
| 65 | `CCOCCCNC(=O)C1(C)CCC(=O)N1Cc1ccccc1F` (stereo not given) | 23.06% | 6.71% |
| 66 | `CCOC(=O)N1CCN(c2nc(N)c3ccccc3n2)CC1.Cl` | 6.963% | 26.95% & 6.23% |
| 67 | `COCCC(=O)NCc1cccnc1-n1cnc2ccccc21` | -1.371% | -2.454% |
| 68 | `COc1c(C2CCCN2C(=O)c2ccc(O)nc2)c(C)nn1C` (stereo not given) | 0.8154% | 0.832% |
| 69 | `Cc1nc(Cn2c(=O)cnc3ccccc32)n(C)n1` | 5.986% | -6.993% |
| 70 | `CC(=O)N(Cc1ncc(C)o1)C1CCN(Cc2cccnc2)C1` (stereo not given) | -16.79% | -19.24% |
| 71 | `Cl.Cn1ccnc1N1CCN(C(=O)Cc2ccc(Cl)cc2)CC1` | -1.408% | -9.87% |
| 72 | `O=C(NCc1cccs1)c1nc2c(o1)CN(C(=O)c1cccnc1)C2.O=C(O)C(F)(F)F` | -5.8% & -16% | -20.03% |
| 73 | `CC(NC(=O)c1ccc(Cl)cc1)c1nnc(SCC(N)=O)n1C` (stereo not given) | 16.93% | -5.557% |
| 74 | `COc1cccc2c(C)c(C(=O)N3CCNCC3C(N)=O)[nH]c12.Cl` (stereo not given) | 23% | 19.13% & 11.48% |
| 75 | `CN(C)CCCn1ccnc1C1CCN(C(=O)Cc2cccnc2)CC1` | -4.85% | 7.14% |
| 76 | `Cn1ccnc1CN1CCC(F)(F)C2(CCN(c3cccnc3)C2)C1.O=C(O)C(F)(F)F.O=C(O)C(F)(F)F` (stereo not given) | 4.7% | 10.91% |

Repeated from the top, 9 entries:

{"compound": "Cc1cc(NC(=O)CN2CCN(C3CCCC3)C(=O)C2)nn1C", "Mtb glucose medium": -12.7, "Mtb cholesterol medium": "-9.385 & -0.7699"}
{"compound": "O=C(O)C(F)(F)F.[H][C@@]12CCN(C)C[C@@]1([H])[C@H](C(=O)NCc1ccco1)CCO2", "Mtb glucose medium": -30.86, "Mtb cholesterol medium": -20.31}
{"compound": "COc1ccc(C[C@H]2CN(C3CCOCC3)CC[C@H]2OCC2CC2)cc1.O=C(O)C(F)(F)F", "Mtb glucose medium": -25.71, "Mtb cholesterol medium": -24.74}
{"compound": "CCOCC(=O)Nc1cccc(Oc2ccccn2)c1", "Mtb glucose medium": 9.569, "Mtb cholesterol medium": "-0.003958 & 3.141"}
{"compound": "O=C(O)C(F)(F)F.O=C(O)C(F)(F)F.[H][C@@]12CN(Cc3nccs3)C[C@H](C(=O)N3CCCCO3)[C@]1([H])CCO2", "Mtb glucose medium": -15.2, "Mtb cholesterol medium": "-0.4287 & 17.35"}
{"compound": "c1ccc(CCN2CCCC(Cn3ccnc3)C2)cc1", "stereo": "stereo not given", "Mtb glucose medium": 5.254, "Mtb cholesterol medium": 19.8}
{"compound": "Cc1cccc(CN2CCC3(CCN(c4ccccn4)C3)C2=O)c1.O=C(O)C(F)(F)F", "stereo": "stereo not given", "Mtb glucose medium": 0.1761, "Mtb cholesterol medium": 2.341}
{"compound": "CNS(=O)(=O)CCNc1cc(C)nc2cc(C)nn12", "Mtb glucose medium": 6.683, "Mtb cholesterol medium": -0.1804}
{"compound": "COc1ccc(SC(C)C(=O)N2CCC(C(=O)N3CCCC3)CC2)cc1", "stereo": "stereo not given", "Mtb glucose medium": "-11.49 & 0.6032", "Mtb cholesterol medium": 11.11}

The values are deposited in ChEMBL (CHEMBL3988442, “University of Dundee, Small-Polar-MMV Screening Library” (2021)).